# In the supplement of paper PMC6690932:
# Values joined by “and” are separate entries in the source; they are usually repeats but may differ in a detail not shown here. Identical values can stand only once. Counter-ions that a name gives are not always drawn. ± gives the standard deviation of the averaged measurements. The list shows a part of the results. Most values come without repeats; read them as rough.
# Test system: HeLa
# Experiment: lysosomal-METRIQ red/green fluorescence ratio relative to DMSO (ratio to DMSO); higher = higher lysosomal activity / lysosomal biogenesis
# Conditions: 10 µM; 12 h
row,Structure (SMILES),lysosomal-METRIQ red/green fluorescence ratio
1,CC(=O)N[C@@H](CSC(=O)[C@]1([C@@H](O)C(C)C)NC(=O)[C@H](C)[C@@H]1O)C(=O)O [Lactacystin],0.6
2,CO[C@H]1C[C@@H]2CC[C@@H](C)[C@@](O)(O2)C(=O)C(=O)N2CCCC[C@H]2C(=O)O[C@H]([C@H](C)C[C@@H]2CC[C@@H](OC(=O)C(C)(CO)CO)[C@H](OC)C2)CC(=O)[C@H](C)/C=C(\C)[C@@H](O)[C@@H](OC)C(=O)[C@H](C)C[C@H](C)/C=C/C=C/C=C/1C [temsirolimus],1.14
3,C[n+]1ccc(-c2c3nc(c(-c4cc[n+](C)cc4)c4ccc([nH]4)c(-c4cc[n+](C)cc4)c4ccc([nH]4)c(-c4cc[n+](C)cc4)c4nc2C=C4)C=C3)cc1,0.682
4,NS(=O)(=O)c1ccc(Nc2nc(OCC3CCCCC3)c3[nH]cnc3n2)cc1,0.955
5,Cc1cc(Nc2cc(N3CCN(C)CC3)nc(/C=C/c3ccccc3)n2)n[nH]1,0.818
6,CSCC[C@H](NC(=O)c1ccc(NC[C@@H](N)CS)cc1-c1ccccc1)C(=O)O,1.05
7,NNCCc1ccccc1 [Phenelzine],1.04
8,CS(=O)(=O)CCNCc1ccc(-c2ccc3ncnc(Nc4ccc(OCc5cccc(F)c5)c(Cl)c4)c3c2)o1 [lapatinib],0.545
9,O=Cc1ccc(N2CCOCC2)cc1O,1
10,Cc1c[nH]c(/C=C2\C(=O)Nc3ccccc32)c1CCC(=O)O,1.18
11,COc1cc2c(NC3CCN(C(C)C)CC3)nc(C3CCCCC3)nc2cc1OCCCN1CCCC1,0.455
12,"N#CCCc1ccc2c(c1)-c1[nH]c3ccc([N+](=O)[O-])cc3c1CC(=O)N2 [Alsterpaullone, 2-cyanoethyl]",3.18
13,Cc1ccc(NC(=O)c2cccc(N(C)C)c2)cc1NC(=O)c1ccc(O)cc1,1.19
14,COc1cc2ncnc(Nc3cccc(Cl)c3)c2cc1OC,1.07 ± 0.11
15,Nc1ncn([C@H]2C[C@H](O)[C@@H](CO)O2)c(=O)n1 [Decitabine],0.864
16,CC[C@H](C)C(=O)O[C@H]1C[C@@H](C)C=C2C=C[C@H](C)[C@H](CC[C@@H]3C[C@@H](O)CC(=O)O3)[C@H]21 [Lovastatin],1.1
17,CC(=N)NCc1cccc(CN)c1,1
18,Cc1c(C)c2c(c(C)c1O)CCC(C)(COc1ccc(CC3SC(=O)NC3=O)cc1)O2 (stereo not given) [Troglitazone],1

row,Structure (SMILES),lysosomal-METRIQ red/green fluorescence ratio
1,c1ccc2c(-c3cnn4cc(-c5ccc(N6CCNCC6)cc5)cnc34)ccnc2c1,0.818
2,COc1ccc([C@@H]2Sc3ccccc3N(CCN(C)C)C(=O)[C@@H]2OC(C)=O)cc1 [Diltiazem],1.04
3,COC(=O)Nc1nc2cc(C(=O)c3cccs3)ccc2[nH]1 [Nocodazole],1.07
4,Ic1cccc(CSc2nnc(-c3ccncc3)o2)c1 [GSK-3 inhibitor II],1.2
5,CC(C)(C)c1cc(O)ccc1O [t-Butylhydroquinone (BHQ)],1.16
6,CCOc1nc(NC(=O)Cc2cc(OC)ccc2OC)cc(N)c1C#N [JNK inhibitor VIII],0.875
7,NC(=O)c1ccc(-c2nc(-c3ccccn3)c(-c3ccc4c(c3)OCO4)[nH]2)cc1,1 and 1.06
8,CNCCCN1c2ccccc2CCc2ccccc21 [desipramine hydrochloride],0.727
9,O=CN1CCN(c2ccc(/C=C3\C(=O)Nc4ccccc43)cc2)CC1,1
10,COc1ccc(C2=N[C@@H](c3ccc(Cl)cc3)[C@@H](c3ccc(Cl)cc3)N2C(=O)N2CCNC(=O)C2)c(OC(C)C)c1 [Nutlin-3],1.17
11,C#Cc1cccc(Nc2ncnc3cc(OCCOC)c(OCCOC)cc23)c1 [erlotinib],0.818
12,CC(=O)N[C@@H](CS)C(=O)O [N-Acetyl-L-cysteine],1.07
13,Cc1ncc2ccccc2c1C#N [4-cyano-3-methylisoquinoline],1.06
14,CC(C)c1cc(/C=C(\C#N)C(=O)NCCCc2ccccc2)cc(C(C)C)c1O,1.12 ± 0.097
15,CNC(=N)NCCC[C@H](N)C(=O)O,1.07
16,COc1cc2ncnc(Nc3ccc(F)c(Cl)c3)c2cc1OCCCN1CCOCC1 [gefitinib],0.682
17,Cc1nc2c(O)cccc2c(=O)[nH]1,1.07
